Assay [1] addresses positive control phospho-peptide RRHRsAPGVR. Nature of the assay: peptide or protein array; data not shown; comparable SPOT membranes probed with GST-14-3-3 isoform zeta; both purified.
For assay [2], the target named is positive control phospho-peptide RRFRsLPAAH. Described as above.
Assay [3] concerns the target positive control phospho-peptide RRSRsFPVTF. The description is as above.
For assay [4], the target named is T1, endogenous POB1 full length (HeLa) (human (endogenous in HeLa)) (UniProt Q8NFH8).
T1 sequence: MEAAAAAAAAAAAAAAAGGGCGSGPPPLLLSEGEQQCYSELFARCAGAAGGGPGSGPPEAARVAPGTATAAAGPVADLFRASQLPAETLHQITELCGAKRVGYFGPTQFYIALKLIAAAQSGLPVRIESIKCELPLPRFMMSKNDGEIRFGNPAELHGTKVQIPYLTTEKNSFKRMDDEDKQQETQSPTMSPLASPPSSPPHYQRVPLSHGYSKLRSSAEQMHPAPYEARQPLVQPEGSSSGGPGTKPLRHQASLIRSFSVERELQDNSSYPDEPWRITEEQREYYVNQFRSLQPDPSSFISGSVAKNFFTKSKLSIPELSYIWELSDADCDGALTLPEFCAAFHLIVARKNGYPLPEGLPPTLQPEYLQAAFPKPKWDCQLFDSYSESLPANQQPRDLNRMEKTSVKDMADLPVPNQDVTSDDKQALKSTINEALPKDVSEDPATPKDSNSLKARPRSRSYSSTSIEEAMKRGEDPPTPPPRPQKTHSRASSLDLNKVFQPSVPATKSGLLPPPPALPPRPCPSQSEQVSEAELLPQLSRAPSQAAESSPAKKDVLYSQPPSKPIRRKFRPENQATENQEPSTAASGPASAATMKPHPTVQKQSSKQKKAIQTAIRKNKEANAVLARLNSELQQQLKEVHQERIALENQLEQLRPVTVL
Nature of the assay: co-IP; endogenous proteins, HeLa cells starved 4 hours, with or without EGF 100 ng/ml; immunoprecipitated with anti-POB1; blots with anti-Grb2 or anti-14-3-3 zeta.

The chains behind the UniProt entries cited, without tags or fusion partners.
UniProt P63104: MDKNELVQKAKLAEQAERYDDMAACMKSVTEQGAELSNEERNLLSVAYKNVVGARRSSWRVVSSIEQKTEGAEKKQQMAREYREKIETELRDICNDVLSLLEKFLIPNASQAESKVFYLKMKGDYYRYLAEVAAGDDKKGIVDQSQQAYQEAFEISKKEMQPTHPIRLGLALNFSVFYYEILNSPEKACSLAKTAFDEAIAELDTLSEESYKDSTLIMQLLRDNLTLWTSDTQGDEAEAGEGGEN
UniProt P62993: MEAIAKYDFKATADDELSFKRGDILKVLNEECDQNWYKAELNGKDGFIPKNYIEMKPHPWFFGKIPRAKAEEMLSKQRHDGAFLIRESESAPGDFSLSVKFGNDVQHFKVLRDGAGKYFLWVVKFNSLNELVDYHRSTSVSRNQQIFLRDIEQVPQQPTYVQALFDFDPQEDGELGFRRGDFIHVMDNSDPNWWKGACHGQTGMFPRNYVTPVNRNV

These are yes or no findings as the source states them, for the method shown. For some assays here: In cells and extracts the contact can be indirect. Some results given as binding are weak or reduced against the parent protein; the word gives no strength.

With “GST-14-3-3 ζ (from UniProt P63104 1-245)”, the binding entry in assay [1], in assay [2] and in assay [3] was “binds” throughout. As to “endogenous 14-3-3 zeta (HeLa) (from UniProt P63104 1-245)”, the binding entry in assay [4] was “binds”. Take “endogenous Grb2 (HeLa) (from UniProt P62993 1-217)”: in assay [4], the binding entry was “binds”.

These data come from paper PMC2494995, “The central proline rich region of POB1/REPS2 plays a regulatory role in epidermal growth factor receptor endocytosis by binding to 14-3-3 and SH3 domain-containing proteins” (BMC Biochemistry, 2008).
